## Primary screen of a compound library

Chains of the proteins cited; added tags and fusions are not shown.
UniProt E9BF75, entry or part of it: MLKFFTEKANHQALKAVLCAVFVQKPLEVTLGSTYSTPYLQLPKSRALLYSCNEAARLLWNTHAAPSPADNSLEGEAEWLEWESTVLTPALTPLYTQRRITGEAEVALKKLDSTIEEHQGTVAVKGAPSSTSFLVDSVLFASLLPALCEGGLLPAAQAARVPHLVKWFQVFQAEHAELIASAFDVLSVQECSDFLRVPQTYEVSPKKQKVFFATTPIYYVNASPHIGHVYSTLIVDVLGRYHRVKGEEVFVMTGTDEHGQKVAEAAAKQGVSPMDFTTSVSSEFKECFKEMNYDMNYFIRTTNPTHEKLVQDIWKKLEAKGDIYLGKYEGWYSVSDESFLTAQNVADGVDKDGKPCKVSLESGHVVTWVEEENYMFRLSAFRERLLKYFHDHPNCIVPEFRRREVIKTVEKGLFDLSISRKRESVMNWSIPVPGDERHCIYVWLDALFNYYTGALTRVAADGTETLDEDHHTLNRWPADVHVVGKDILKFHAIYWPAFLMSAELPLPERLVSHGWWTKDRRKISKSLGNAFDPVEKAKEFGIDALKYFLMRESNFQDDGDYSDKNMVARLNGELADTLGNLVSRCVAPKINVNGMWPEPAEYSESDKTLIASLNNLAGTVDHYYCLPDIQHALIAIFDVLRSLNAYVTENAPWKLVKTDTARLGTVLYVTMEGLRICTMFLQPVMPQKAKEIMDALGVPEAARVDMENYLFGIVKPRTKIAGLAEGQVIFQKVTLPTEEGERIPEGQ

From ChEMBL document CHEMBL3988442, “University of Dundee, Small-Polar-MMV Screening Library” (2021).

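Primary screen of methionyl-tRNA synthetase; the read-out is not stated. Target: Methionyl-tRNA synthetase (putative), Leishmania donovani (UniProt E9BF75). The test concentration is not given. The values are filed as inhibition. Of about 68,000 compounds tested this way, about 24 (0.035%) reached 50% or more in at least one test.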

Results are percentages, as filed.
The record does not define 0% and 100%; most values in the screen are far below 50% and negative numbers occur (in some assays of this library far below -100).
The compounds are a random part of those screened.

structure	inhibition
Cc1cccc(-c2c[nH]c(C3CCCN3)n2)c1 (stereo unspecified)	-1.504
CC(C)N1CCC(Cc2cncc(-c3ccccc3C(=O)O)n2)C1 (stereo unspecified)	15.82
Cc1c(C(=O)O)sc2nc(C(F)(F)F)ccc12	6.969
N#Cc1cc2n(n1)CCN(C(=O)CCc1c[nH]c3ccccc13)C2	8.04
Cc1cccc(CN2CCc3ncnc(NC4CCC4)c3CC2)n1	22.7
Cc1cc(CCC(=O)Nc2nncs2)nc(C2CCCN2)n1 (stereo unspecified)	4.688
CN1CCCC(CNC(=O)CN(C)S(=O)(=O)c2cccnc2)C1 (stereo unspecified)	9.777
CNc1ncc2c(n1)CN(CCc1ccccc1)C2=O	13.88
O=C(NCCc1ccn(-c2ccccc2)n1)N1CCSCC1	4.42
CC(C)(C)n1cc(C(=O)NCCN2CCOCC2)c2cccnc21	6.944
O=C1Nc2ccccc2C12CCCN(Cc1ccncc1)C2 (stereo unspecified)	10.05
COCCN1CCOCC12CCN(C(=O)c1ccncc1)CC2	5.333
Cn1cc(N2CCCC(Nc3ccc4c(c3)CCC(=O)N4)C2=O)cn1 (stereo unspecified)	9.926
Cc1nc(NC(=O)CN2C(=O)c3ccccc3NC2C(C)C)sc1C (stereo unspecified)	20.16
COC(=O)c1cc(C(=O)N2CCCCCC2)n(-c2ccccc2)n1	10.2
CC(NCc1ccccc1CN1CCCC1=O)c1ccc(C#N)cc1 (stereo unspecified)	8.078
CCCC(C)CS(=O)(=O)NCCc1csc(N2CCCC2)n1 (stereo unspecified)	16.71
CCNC(=O)CCC(=O)NCC1(O)CCC(C(C)(C)C)CC1 (stereo unspecified)	12.66
CCc1nc(C2CCCN2C(=O)C2=COCC2)no1 (stereo unspecified)	11.19
COCCc1noc(-c2ccc(-c3cc[nH]n3)nc2)n1	18.55
Cn1cc(CN2CC[C@H]3O[C@@H](C(=O)NC4CC4)CC[C@H]32)cn1	3.763
O=C(CN1CCOCC1)Nc1ncc(Br)cc1Br	2.975
CC(=O)N1CCCC2(C1)CN(C(=O)Cc1ccccc1)CCO2 (stereo unspecified)	9.95
CC(=O)N1CCCN(C(=O)NCCNc2cnccn2)CC1	7.407
O=C(NCc1cccc(-n2cncn2)c1)NCC(C1CC1)C1CC1	13.52
COc1ccc(OC)c(C(C(=O)O)N2CCSCC2)c1 (stereo unspecified)	24.37
O=C1CC(Nc2ccc3nccnc3n2)CN1c1ccccc1 (stereo unspecified)	3.039
CC(c1nc(C2CC2)no1)N1CCN(CCN2CCCC2=O)CC1 (stereo unspecified)	26.67
Cc1ccc(Sc2ccc(N3CCCC(C(=O)O)C3)nn2)cc1 (stereo unspecified)	21.12
CS(=O)(=O)NC1CCCN(Cc2ccc(OCc3ccccn3)cc2)C1 (stereo unspecified)	21.88
Cc1ccccc1COCCOCn1c(C)cc(=O)[nH]c1=O	6.021
c1ccc(-c2nnn3c2COC(CNCC2CC2)C3)cc1 (stereo unspecified)	8.791
N#CCCN(CC(=O)Nc1ccc(Br)cc1Cl)Cc1cccnc1	11.18
CCN(CCn1cccn1)C(=O)CN1C(=O)OC[C@@H]1C(C)C	5.923
CCNC(=O)C1(Cc2cc(-c3ccccc3)no2)CCCN(C(C)=O)C1 (stereo unspecified)	4.762
COCc1nc2cc(NCc3ccc(C)o3)ccc2o1	17.14
O=C(NC1CCN(c2ccccc2Br)C1)c1c[nH]nn1 (stereo unspecified)	17.13
c1cc(CNCc2ccnc(N3CCCC3)c2)c2c(c1)OCO2	18.35
O=S(=O)(c1cn[nH]c1)N1CCCC(O)(CN2CCOCC2)CC1 (stereo unspecified)	13.37
Cn1ccnc1-c1cccc(NC(=O)NCCCO)c1	17.7
c1cnnc(N2CCCC2CNCc2nc(-c3ccoc3)no2)c1 (stereo unspecified)	13.72
CCS(=O)(=O)Nc1ccc2[nH]c(C3CCC3)nc2c1	14.89
Cc1cnn(CC2CCCN2Cc2nnc(-c3ccccc3)o2)c1 (stereo unspecified)	18.33
Cc1cc(C)n(-c2ccccc2NC(=O)NCCCN(C)S(C)(=O)=O)n1	16.57
O=C1CCCc2nccc(-c3ccccc3)c21	10.84
CCc1ncc(C(=O)N2CCN(C(=O)COc3ccccc3)CC2)cn1	8.675
c1ncc2c(n1)CN(CC1CCCCO1)CC2 (stereo unspecified)	6.959
Cc1nc(C)n(CC2CCCN2CC(=O)NCc2ccco2)n1 (stereo unspecified)	8.374
CN1CCC2(CC1)CN(C(=O)c1cccc3cccnc13)CCN2C	10.03
N#Cc1ccc(NCCCOCC2CCOC2)c(F)c1 (stereo unspecified)	8.493
CC(NC(=O)CN1CCN(c2cccc(Cl)c2)CC1)c1ccco1 (stereo unspecified)	19.6
CC[C@H]1CN2CC[C@H]1C[C@@H]2CNCc1cccc(C#N)c1	-3.846
CCc1nc(C2CCCN2CCCS(=O)(=O)c2ccccc2)no1 (stereo unspecified)	12.88
Cc1cncc(C2CCN(Cc3ccsc3)CC2)n1	5.938
CNC(=O)COC(=O)c1ccoc1CN1c2ccccc2CC1C (stereo unspecified)	11.35
CCS(=O)(=O)N1CCC(c2nn(CCN(C)C)c3ncccc23)C1 (stereo unspecified)	7.233
O=C(CN1CCN(c2nccs2)CC1)Nc1cccnc1	19.44
Cc1cc(N2CCOCC2)ccc1NC(C)c1nc(C(C)(C)C)no1 (stereo unspecified)	8.943

For reference, 4 entries once more:

structure	inhibition
O=C1CC(Nc2ccc3nccnc3n2)CN1c1ccccc1 (stereo unspecified)	3.039
c1ncc2c(n1)CN(CC1CCCCO1)CC2 (stereo unspecified)	6.959
CCS(=O)(=O)N1CCC(c2nn(CCN(C)C)c3ncccc23)C1 (stereo unspecified)	7.233
Cc1cc(CCC(=O)Nc2nncs2)nc(C2CCCN2)n1 (stereo unspecified)	4.688